Among the data in paper PMC5974087, “The RPAP3-Cterminal domain identifies R2TP-like quaternary chaperones” (Nature Communications, 2018) are binding values, retold here.

Protein sequences, listed by entry. Tags and fused reporters are not part of them.
UniProt O95816: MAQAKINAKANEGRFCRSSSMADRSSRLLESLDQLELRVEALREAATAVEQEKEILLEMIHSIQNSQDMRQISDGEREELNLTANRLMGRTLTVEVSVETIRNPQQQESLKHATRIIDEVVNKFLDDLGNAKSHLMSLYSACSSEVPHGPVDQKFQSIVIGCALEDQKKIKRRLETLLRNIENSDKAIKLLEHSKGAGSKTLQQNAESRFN
UniProt Q9Y265: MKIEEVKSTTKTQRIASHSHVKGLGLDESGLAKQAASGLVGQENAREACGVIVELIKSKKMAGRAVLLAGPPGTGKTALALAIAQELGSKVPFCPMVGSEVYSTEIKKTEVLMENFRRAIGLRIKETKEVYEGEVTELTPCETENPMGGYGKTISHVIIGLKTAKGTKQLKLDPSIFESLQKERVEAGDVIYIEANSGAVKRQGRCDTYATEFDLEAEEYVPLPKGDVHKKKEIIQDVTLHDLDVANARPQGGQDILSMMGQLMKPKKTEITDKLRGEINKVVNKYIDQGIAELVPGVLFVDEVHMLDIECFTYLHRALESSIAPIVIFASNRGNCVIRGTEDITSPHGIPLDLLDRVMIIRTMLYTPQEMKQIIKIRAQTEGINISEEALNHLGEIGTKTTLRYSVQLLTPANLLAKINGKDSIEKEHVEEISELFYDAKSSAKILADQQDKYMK

Experiment in all cases: affinity purification with mass spectrometry; SILAC; extracts of HeLa cells stably expressing the 3xFLAG-GFP fusion, GFP-Trap beads, 75 min at 4 °C, lysis buffer 0.5% triton X-100, 20 mM HEPES pH 7.4, 150 mM NaCl; control: HeLa H9 without the fusion
Test [1] addresses T1, GFP-PIH1D2 (human) (UniProt Q8WWB5).
T1 sequence: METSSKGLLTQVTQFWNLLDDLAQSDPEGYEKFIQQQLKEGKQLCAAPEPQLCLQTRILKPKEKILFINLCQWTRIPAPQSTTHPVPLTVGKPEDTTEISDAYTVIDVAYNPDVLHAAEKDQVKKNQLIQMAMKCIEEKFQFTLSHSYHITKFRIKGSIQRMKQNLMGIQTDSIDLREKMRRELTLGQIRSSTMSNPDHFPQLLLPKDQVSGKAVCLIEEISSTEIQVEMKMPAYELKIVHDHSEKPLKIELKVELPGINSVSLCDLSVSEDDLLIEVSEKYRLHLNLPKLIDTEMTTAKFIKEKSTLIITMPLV

Test [2] deals with T2, GFP-DNAAF2 (human) (UniProt Q9NVR5).
T2 sequence: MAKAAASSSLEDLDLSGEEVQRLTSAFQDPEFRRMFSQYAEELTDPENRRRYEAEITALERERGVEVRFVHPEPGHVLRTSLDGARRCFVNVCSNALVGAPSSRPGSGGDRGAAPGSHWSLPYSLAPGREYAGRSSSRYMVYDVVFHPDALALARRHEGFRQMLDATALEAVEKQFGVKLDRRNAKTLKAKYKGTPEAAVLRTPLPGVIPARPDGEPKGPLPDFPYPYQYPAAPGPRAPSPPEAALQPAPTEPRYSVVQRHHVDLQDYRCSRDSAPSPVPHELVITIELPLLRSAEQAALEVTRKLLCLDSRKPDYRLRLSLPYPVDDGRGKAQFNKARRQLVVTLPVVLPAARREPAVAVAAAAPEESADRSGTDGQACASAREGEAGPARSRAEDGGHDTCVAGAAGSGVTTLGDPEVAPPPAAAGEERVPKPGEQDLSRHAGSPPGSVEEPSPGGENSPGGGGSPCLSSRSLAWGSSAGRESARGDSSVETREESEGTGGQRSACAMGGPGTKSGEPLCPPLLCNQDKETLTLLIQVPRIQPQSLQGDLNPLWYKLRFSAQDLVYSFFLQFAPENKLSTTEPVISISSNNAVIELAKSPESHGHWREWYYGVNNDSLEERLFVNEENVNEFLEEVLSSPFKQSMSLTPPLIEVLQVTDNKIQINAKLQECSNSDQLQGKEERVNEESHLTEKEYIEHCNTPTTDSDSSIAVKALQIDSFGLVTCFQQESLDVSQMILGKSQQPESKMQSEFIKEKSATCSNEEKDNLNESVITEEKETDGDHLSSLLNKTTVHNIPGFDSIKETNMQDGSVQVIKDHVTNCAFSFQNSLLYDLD

Test [3] addresses T3, GFP-PIH1D3 (human) (UniProt Q9NQM4).
T3 sequence: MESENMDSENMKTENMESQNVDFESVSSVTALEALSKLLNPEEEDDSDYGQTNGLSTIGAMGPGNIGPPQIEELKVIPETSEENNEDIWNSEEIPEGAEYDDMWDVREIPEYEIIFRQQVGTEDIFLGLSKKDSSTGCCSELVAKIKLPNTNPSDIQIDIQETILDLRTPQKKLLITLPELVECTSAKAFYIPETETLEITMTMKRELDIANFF

The target of test [4] is T2, GFP-DNAAF2 (human). The source holds these as a separate data set.
The target in test [5] is T3, GFP-PIH1D3 (human). This is another data set of the same source.
For test [6], the target named is T1, GFP-PIH1D2 (human). This is another data set of the same source.

Like-named read-outs stand apart in the source and are kept apart here. These are yes or no findings as the source states them, for the method shown. Binding seen in cells or lysates may run through a third protein. These calls come from enrichment with a bait or labelling near it, and not all partners need be listed. Sequences can lack the tags named with a protein.

For the molecule “HSP70 (endogenous) (human (endogenous in HeLa))”, the binding entry in the test with GFP-PIH1D2 (human) [1] was “binds”.
Same read-out and setting: as for BAG2 (from UniProt O95816 1-211), the entry is “binds”.
As for “RUVBL1 (endogenous) (from UniProt Q9Y265 1-456)”, the binding entry in the test with GFP-DNAAF2 (human) [2] was “binds weakly”; with GFP-PIH1D2 (human) [1] it was “binds”; with GFP-PIH1D3 (human) [3], “binds weakly”.

B1: DYX1C1-iso-a (endogenous) (protein, UniProt Q8WXU2 1-420)
chain: MPLQVSDYSWQQTKTAVFLSLPLKGVCVRDTDVFCTENYLKVNFPPFLFEAFLYAPIDDESSKAKIGNDTIVFTLYKKEAAMWETLSVTGVDKEMMQRIREKSILQAQERAKEATEAKAAAKREDQKYALSVMMKIEEEERKKIEDMKENERIKATKALEAWKEYQRKAEEQKKIQREEKLCQKEKQIKEERKKIKYKSLTRNLASRNLAPKGRNSENIFTEKLKEDSIPAPRSVGSIKINFTPRVFPTALRESQVAEEEEWLHKQAEARRAMNTDIAELCDLKEEEKNPEWLKDKGNKLFATENYLAAINAYNLAIRLNNKMPLLYLNRAACHLKLKNLHKAIEDSSKALELLMPPVTDNANARMKAHVRRGTAFCQLELYVEGLQDYEAALKIDPSNKIVQIDAEKIRNVIQGTELKS
Consider B1, for which, in the test with GFP-DNAAF2 (human) [4], the binding entry is “binds”.

B2: LRIF1 (protein, UniProt Q5T3J3 1-769)
chain: MSNNLRRVFLKPAEENSGNASRCVSGCMYQVVQTIGSDGKNLLQLLPIPKSSGNLIPLVQSSVMSDALKGNTGKPVQVTFQTQISSSSTSASVQLPIFQPASSSNYFLTRTVDTSEKGRVTSVGTGNFSSSVSKVQSHGVKIDGLTMQTFAVPPSTQKDSSFIVVNTQSLPVTVKSPVLPSGHHLQIPAHAEVKSVPASSLPPSVQQKILATATTSTSGMVEASQMPTVIYVSPVNTVKNVVTKNFQNIYPKPVTEIAKPVILNTTQIPKNVATETQLKGGQHSQAAPVKWIFQDNLQPFTPSLVPVKSSNNVASKILKTFVDRKNLGDNTINMPPLSTIDPSGTRSKNMPIKDNALVMFNGKVYLLAKKGTDVLPSQIDQQNSVSPDTPVRKDTLQTVSSSPVTEISREVVNIVLAKSKSSQMETKSLSNTQLASMANLRAEKNKVEKPSPSTTNPHMNQSSNYLKQSKTLFTNPIFPVGFSTGHNAPRKVTAVIYARKGSVLQSIEKISSSVDATTVTSQQCVFRDQEPKIHNEMASTSDKGAQGRNDKKDSQGRSNKALHLKSDAEFKKIFGLTKDLRVCLTRIPDHLTSGEGFDSFSSLVKSGTYKETEFMVKEGERKQQNFDKKRKAKTNKKMDHIKKRKTENAYNAIINGEANVTGSQLLSSILPTSDVSQHNILTSHSKTRQEKRTEMEYYTHEKQEKGTLNSNAAYEQSHFFNKNYTEDIFPVTPPELEETIRDEKIRRLKQVLREKEAALEEMRKKMHQK
B2: the binding result with GFP-PIH1D3 (human) [5] is reported as “binds”.

B3: SPAG1 (endogenous) (protein, UniProt Q07617 1-926)
chain: MTTKDYPSLWGFGTTKTFKIPIEHLDFKYIEKCSDVKHLEKILCVLRSGEEGYYPELTEFCEKHLQALAPESRALRKDKPAATAASFTAEEWEKIDGDIKSWVSEIKKEEDKMHFHETETFPAMKDNLPPVRGSNSCLHVGKEKYSKRPTKKKTPRDYAEWDKFDVEKECLKIDEDYKEKTVIDKSHLSKIETRIDTAGLTEKEKDFLATREKEKGNEAFNSGDYEEAVMYYTRSISALPTVVAYNNRAQAEIKLQNWNSAFQDCEKVLELEPGNVKALLRRATTYKHQNKLREATEDLSKVLDVEPDNDLAKKTLSEVERDLKNSEAASETQTKGKRMVIQEIENSEDEEGKSGRKHEDGGGDKKPAEPAGAARAAQPCVMGNIQKKLTGKAEGGKRPARGAPQRGQTPEAGADKRSPRRASAAAAAGGGATGHPGGGQGAENPAGLKSQGNELFRSGQFAEAAGKYSAAIALLEPAGSEIADDLSILYSNRAACYLKEGNCSGCIQDCNRALELHPFSMKPLLRRAMAYETLEQYGKAYVDYKTVLQIDCGLQLANDSVNRLSRILMELDGPNWREKLSPIPAVPASVPLQAWHPAKEMISKQAGDSSSHRQQGITDEKTFKALKEEGNQCVNDKNYKDALSKYSECLKINNKECAIYTNRALCYLKLCQFEEAKQDCDQALQLADGNVKAFYRRALAHKGLKNYQKSLIDLNKVILLDPSIIEAKMELEEVTRLLNLKDKTAPFNKEKERRKIEIQEVNEGKEEPGRPAGEVSMGCLASEKGGKSSRSPEDPEKLPIAKPNNAYEFGQIINALSTRKDKEACAHLLAITAPKDLPMFLSNKLEGDTFLLLIQSLKNNLIEKDPSLVYQHLLYLSKAERFKMMLTLISKGQKELIEQLFEDLSDTPNNHFTLEDIQALKRQYEL
Regarding B3, the binding entry in the test with GFP-PIH1D2 (human) [6] is reported as “binds”.
